Record: PubChem BioAssay AID1508597 (Cure First, 2020)
Test: 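Genes whose silencing sensitises or protects ovarian cancer cells against rucaparib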 (primary screen). Cell system: human ovarian carcinoma lines grown from tumours: OCI-P5x (papillary serous) and OCI-C5x (clear cell). Knock-down reagent: siRNA pool against human genes, 1.25 pmol siRNA per well. Time to read-out: 72 h or 96 h, depending on the cell culture. Conditions: rucaparib 20 µM (about IC30) or vehicle, present until read-out. Rucaparib or vehicle: Vehicle. Cell line: OCI-C5x (clear cell). Measurement: 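Luminescent ATP-based viability assay read 72 or 96 h after transfection, depending on culture, given as normalised percent viability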. Direction: viability, normalised: higher = more viable cells remaining. Rule for the call: 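Active when normalised viability falls below 80 percent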. Calls: active = viability under 80%; inactive = viability 80% or more.
This is a random part of the about 2,100 reagents, under one of the conditions tested. 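Calls flag viability under 80% in either arm, not effects specific to rucaparib; the reference for percent is not stated.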 A reagent listed more than once was tested more than once; the source does not tell the runs apart. No sequences are given here. Not given: the 100% reference.

| target | PubChem SID | technical replicate | viability, normalised (%) | call |
| --- | --- | --- | --- | --- |
| FANCL | SID405528320 | 1 | 47.8 | active |
| FANCL | SID405528320 | 2 | 57.5 | active |
| FANCL | SID405528320 | 3 | 35.9 | active |
| CBX3 | SID405528071 | 1 | 47.1 | active |
| CBX3 | SID405528071 | 2 | 43.2 | active |
| CBX3 | SID405528071 | 3 | 67.6 | active |
| SALL1 | SID405527270 | 1 | 53.5 | active |
| SALL1 | SID405527270 | 2 | 45.9 | active |
| SALL1 | SID405527270 | 3 | 68.8 | active |
| DPH3 | SID405528243 | 1 | 30.8 | active |
| DPH3 | SID405528243 | 2 | 42.2 | active |
| DPH3 | SID405528243 | 3 | 31.9 | active |
| RFK | SID405527809 | 1 | 44.5 | active |
| RFK | SID405527809 | 2 | 58.4 | active |
| RFK | SID405527809 | 3 | 43.9 | active |
| KDM4C | SID405526935 | 1 | 57.2 | active |
| KDM4C | SID405526935 | 2 | 46.4 | active |
| KDM4C | SID405526935 | 3 | 51.7 | active |
| KDM5A | SID405526391 | 1 | 40.2 | active |
| KDM5A | SID405526391 | 2 | 43.6 | active |
| KDM5A | SID405526391 | 3 | 34.5 | active |
| MTRFR | SID405528055 | 1 | 55.8 | active |
| MTRFR | SID405528055 | 2 | 52.4 | active |
| MTRFR | SID405528055 | 3 | 37.2 | active |
| RUVBL1 | SID405527264 | 1 | 36.3 | active |
| RUVBL1 | SID405527264 | 2 | 28.1 | active |
| RUVBL1 | SID405527264 | 3 | 39.2 | active |
| CDH1 | SID405528084 | 1 | 28 | active |
| CDH1 | SID405528084 | 2 | 41.8 | active |
| CDH1 | SID405528084 | 3 | 29.2 | active |
| CBX2 | SID405528070 | 1 | 38.8 | active |
| CBX2 | SID405528070 | 2 | 48.9 | active |
| CBX2 | SID405528070 | 3 | 45.6 | active |
| STK40 | SID405527713 | 1 | 62.8 | active |
| STK40 | SID405527713 | 2 | 50.7 | active |
| STK40 | SID405527713 | 3 | 41.2 | active |
| CHEK2 | SID405527434 | 1 | 47.1 | active |
| CHEK2 | SID405527434 | 1 | 68.5 | active |
| CHEK2 | SID405527434 | 2 | 67 | active |
| CHEK2 | SID405527434 | 2 | 57.7 | active |
| CHEK2 | SID405527434 | 3 | 63.9 | active |
| CHEK2 | SID405527434 | 3 | 68.9 | active |
| HSPA5 | SID405528460 | 1 | 27.1 | active |
| HSPA5 | SID405528460 | 2 | 31.8 | active |
| HSPA5 | SID405528460 | 3 | 21.1 | active |
| STRADB | SID405527921 | 1 | 91.1 | inactive |
| STRADB | SID405527921 | 2 | 75.7 | active |
| STRADB | SID405527921 | 3 | 55.9 | active |
| MAP3K20 | SID405528556 | 1 | 58.8 | active |
| MAP3K20 | SID405528556 | 2 | 75.5 | active |
| MAP3K20 | SID405528556 | 3 | 59.3 | active |
| ATP7A | SID405528002 | 1 | 32 | active |
| ATP7A | SID405528002 | 2 | 34.2 | active |
| ATP7A | SID405528002 | 3 | 41.3 | active |
| DMC1 | SID405528290 | 1 | 44.3 | active |
| DMC1 | SID405528290 | 2 | 41.9 | active |
| DMC1 | SID405528290 | 3 | 39.4 | active |
